Laboratory results reported in PubChem BioAssay AID540256 (National Center for Advancing Translational Sciences (NCATS), 2011).
In all, about 300,000 compounds went through this assay and about 3,700 (1.2%) were called active. Inconclusive results, whose numbers are uncertain, are shown with a selection of clear calls. Calls follow the shape of the full dose curve; tested in HEK293 cells. A potency beside an inconclusive call is a rough fit, not a confirmed value.

assay: qHTS for Inhibitors of binding or entry into cells for Lassa Virus; details: Lassa virus pseudotype entry inhibition, cell reporter; activity change, negative = inhibition: at 37.9 µM (top of the series) unless noted; also: nearly all actives have a fitted effect of over 50% in size
% is scaled to controls: 0 for no effect and ±100 for the full control effect; potency is read from the fitted curve at half-maximal effect.

| Structure (SMILES) | activity change, negative = inhibition | Potency |
| --- | --- | --- |
| Cc1nc2ccc(S(=O)(=O)NCC(=O)NCc3ccc(Cl)cc3)cc2s1 | inactive: 2.99% [at 46.1 µM] |  |
| Cc1nn(-c2ccccc2)c(-n2cccc2)c1C(=O)NCCCN1CCN(c2ccccc2F)CC1 |  | inconclusive: 3.16 µM [activator, partial curve, poor fit] |
| CCN(CC)S(=O)(=O)c1cc(NC(=O)CNc2cccc(S(=O)(=O)N3CCCC3)c2)ccc1C |  | inconclusive: 11.2 µM [inhibitor, single point] |
| CC(C)c1ccc(NC(=O)Cn2nnc(C(=O)NCCc3ccccc3)c2N)cc1 |  | inconclusive: 15.8 µM [activator, single point] |
| COc1cc(Cl)c(NC(=O)CN2C(=O)c3cccnc3Sc3ccccc32)c(OC)c1 | inactive: -0.0618% [at 46.1 µM] |  |
| COc1ccc(NC(=O)C(Cc2ccccc2)NS(=O)(=O)c2ccc3c(c2)oc(=O)n3C)c(OC)c1 (stereo not drawn) |  | inconclusive: 3.16 µM [inhibitor, single point] |
| COc1ccccc1CCNC(=O)c1csc2c1CCCC2 |  | inconclusive: 35.5 µM [inhibitor, single point] |
| Cc1cccc2nc(-c3ccc(Cl)s3)c(Nc3ccc4c(c3)OCCO4)n12 |  | inconclusive: 3.16 µM [inhibitor, single point] |
| O=[N+]([O-])c1ccccc1OCCCOc1cccc2cccnc12 | inactive: -23.8% [at 46.1 µM] |  |
| COc1ccc(Cl)c2sc(N(CCN(C)C)C(=O)CCS(=O)(=O)c3ccc(C)cc3)nc12 | inactive: -0.224% |  |
| CCOc1cc(/C=N/NC(=O)c2cc(-c3ccccc3)nc3ccccc23)ccc1O |  | inconclusive: 35.5 µM [inhibitor, single point] |
| CCOc1ccc(S(=O)(=O)N(CC)CC(=O)NC2CC2)cc1 | inactive: 22.2% [at 46.1 µM] |  |
| CCCCn1c(N)c(N(CC(C)C)C(=O)C2CCN(S(=O)(=O)c3ccccc3)CC2)c(=O)[nH]c1=O | inactive: -15.1% |  |
| CCOC(=O)C1=C(C)Nc2sc(C(=O)c3ccc(F)cc3)c(N)c2C1c1ccc(C(=O)OC)cc1 (stereo not drawn) |  | inconclusive: 7.08 µM [inhibitor, partial curve] |
| CC(=O)N1c2ccc(S(=O)(=O)NCCC(=O)NC3CCCC(C)C3C)cc2CC1C (stereo not drawn) |  | inconclusive: 22.4 µM [inhibitor, single point] |
| CCOC(=O)C1CCN(C(=O)c2ccccc2N(C)S(=O)(=O)c2ccccc2)CC1 |  | inconclusive: 5.62 µM [inhibitor, partial curve, poor fit] |
| O=C(CSc1nccn1Cc1ccco1)Nc1ccc(OC(F)(F)F)cc1 | inactive: -15.5% [at 46.1 µM] |  |
| CC(C)CC(=O)NN(C)c1nc(-c2ccccc2)nnc1C(F)(F)F |  | inconclusive: 29.1 µM [inhibitor, single point] |

A draw from above in order of SMILES length, descending.

| Structure (SMILES) | activity change, negative = inhibition | Potency |
| --- | --- | --- |
| CCCCn1c(N)c(N(CC(C)C)C(=O)C2CCN(S(=O)(=O)c3ccccc3)CC2)c(=O)[nH]c1=O | inactive: -15.1% |  |
| CC(C)c1ccc(NC(=O)Cn2nnc(C(=O)NCCc3ccccc3)c2N)cc1 |  | inconclusive: 15.8 µM [activator, single point] |
| Cc1nc2ccc(S(=O)(=O)NCC(=O)NCc3ccc(Cl)cc3)cc2s1 | inactive: 2.99% [at 46.1 µM] |  |
